These results are taken from paper PMC11624282.

Chains of the proteins cited; added tags and fusions are not shown.
UniProt P09874, whole entry: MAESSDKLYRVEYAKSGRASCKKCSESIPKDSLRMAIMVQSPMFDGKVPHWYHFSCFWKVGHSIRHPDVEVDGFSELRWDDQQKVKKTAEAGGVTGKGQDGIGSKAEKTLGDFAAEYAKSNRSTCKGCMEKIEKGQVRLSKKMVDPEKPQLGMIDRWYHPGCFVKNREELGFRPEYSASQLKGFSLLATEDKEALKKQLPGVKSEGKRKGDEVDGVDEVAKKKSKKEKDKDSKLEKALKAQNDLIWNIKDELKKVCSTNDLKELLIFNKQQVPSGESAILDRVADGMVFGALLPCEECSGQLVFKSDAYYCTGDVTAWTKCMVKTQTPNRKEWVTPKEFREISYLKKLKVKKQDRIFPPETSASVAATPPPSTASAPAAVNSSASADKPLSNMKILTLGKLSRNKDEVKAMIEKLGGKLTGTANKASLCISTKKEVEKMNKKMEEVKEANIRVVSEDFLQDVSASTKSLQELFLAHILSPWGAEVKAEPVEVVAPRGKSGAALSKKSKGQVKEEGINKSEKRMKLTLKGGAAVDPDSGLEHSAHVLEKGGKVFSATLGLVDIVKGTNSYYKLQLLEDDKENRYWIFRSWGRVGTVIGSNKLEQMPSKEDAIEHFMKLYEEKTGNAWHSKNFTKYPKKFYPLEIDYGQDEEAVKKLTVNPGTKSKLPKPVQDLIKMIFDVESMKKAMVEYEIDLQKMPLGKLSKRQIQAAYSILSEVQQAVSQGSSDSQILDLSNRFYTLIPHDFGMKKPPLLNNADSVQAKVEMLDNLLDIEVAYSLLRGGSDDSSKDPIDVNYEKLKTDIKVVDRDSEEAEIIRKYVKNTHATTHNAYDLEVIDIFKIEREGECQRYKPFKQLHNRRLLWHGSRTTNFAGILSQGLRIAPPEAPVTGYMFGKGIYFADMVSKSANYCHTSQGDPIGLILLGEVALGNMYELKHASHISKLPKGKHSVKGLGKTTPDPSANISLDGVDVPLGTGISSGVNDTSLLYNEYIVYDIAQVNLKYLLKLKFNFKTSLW

This data set addresses mCherry-PARP1 (Homo sapiens) (UniProt P09874). In words: condensation, fluorescence microscopy. Particulars: 4 µM protein, longer dsDNA acts at lower DNA and higher salt; Condensation (DIC, PARP1 truncations): 20 mM Tris pH 7.5, 50 mM NaCl, 7.5 mM MgCl2, 1 mM DTT; DNA curtains: 25-150 mM NaCl tested; temperature not stated; recombinant protein; residues 1-1014; protein details: mCherry (pET-SUMO-mCherry-PARP1).

Construct, isoform or probe ends are uncertain for at least one entry. At least one verdict rests on a figure or table, not on a statement of the authors.

As for “GATGGTGGGGTCCGTTGATGTCAAGCATAGTCGAAAAAGGGTGCGGGACGACAACCCATG (double strand) [60 nt dsDNA]”, the binding result was “binds”.
